## Percent effect of library compounds

Mtb glucose medium: 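Phenotypic screen: M. tuberculosis growth, glucose 7H9 medium, 3 days; the read-out is not stated. Concentration: 50 µM. Higher reads as more growth inhibition (inferred: compounds with an IC50 in retests scored well above the rest). Size under these conditions: about 69,000 compounds, about 760 of them at 50% or above in at least one test.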
Mtb cholesterol medium: 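Phenotypic screen: M. tuberculosis growth, cholesterol and DPPC medium, 4 days; the read-out is not stated. Tested at 50 µM. The record gives no direction; compounds that gave an IC50 in retests scored well above the rest, so higher reads as more growth inhibition. Of about 69,000 compounds tested this way, about 370 (0.54%) reached 50% or more in at least one test.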

Each number is a percent effect as filed. The record does not define 0% and 100%; most values in the screen are far below 50% and negative numbers occur (in some assays of this library far below -100). This is an unselected part of the compounds tested. Two or more numbers in one place are separate tests of the same structure; such repeats can differ widely.

Compound	Mtb glucose medium	Mtb cholesterol medium
O=C(CCc1nnc2ccccn2c1=O)NCc1ccc2c(c1)OCO2	-13.28%	-25.67%
CCC(NCc1cc[nH]n1)c1nc(C(F)(F)F)cs1 (stereo not shown)	-1.938% and 13.37%	9.422% and 25.8%
COc1ccc(C(=O)N2CCC(Nc3ccc(C)nn3)CC2)cc1	6.121%	-20.19%
CC(C)(C)OC(=O)N1CCn2c(nnc2C2CCCNC2)C1 (stereo not shown)	-8.072%	-14.29% and 1.372%
O=C1CC(c2ccc3ccccc3n2)c2c(n[nH]c2C2CCC2)N1 (stereo not shown)	-34.05%	-42.41%
Cn1ncc2c(N3CCN(CCO)CC3)nc(C3CCCC3)nc21	2.955% and -1.244%	0.3188%
[H][C@@]12CNC[C@]1([H])[C@H]2CN1CCn2nc(CNC(=O)N(C)C)cc2C1	25.21%	-7.895%
O=C(c1coc(-c2ccccc2)n1)N1CCCC1	36.43% and 27.93%	3.946%
Cc1nccc(N2C[C@@H](CN3CCCC3)[C@@H](CO)C2)n1	-0.009259% and 4.349%	-0.9596%
Cn1ccc(NC2CCN(C3CC3)C2=O)n1 (stereo not shown)	-18.17% and -6.568%	-7.453% and -13.49%
N#Cc1ccnc(N2CCN(Cc3cccc(F)c3)CC2)c1	27.99%	-2.828%
Cn1cc(C2CCCN2CCc2nc3ccccc3c(=O)[nH]2)cn1 (stereo not shown)	20.7%	8.398%
COCC(=O)N(C)Cc1cccc(Cl)c1	-9.687% and -2.741%	12.07%
N#Cc1ccc(OC2CCN(CC(=O)NCC(F)(F)F)CC2)cc1	3.618%	22.22%
CSCC(C)N(C)C(=O)CN1CCN(c2ccccn2)CC1 (stereo not shown)	8.356% and -0.3755%	-2.596%
COc1ccc(OC)c(C(=O)N(C)Cc2nnc3ccccn23)c1	6.623%	-10.87%
Cc1noc(COCC(=O)N2CCCC(c3nccs3)C2)n1 (stereo not shown)	-22.53%	1.865%
CC(C)=CCN1CCN(C(=O)C2CCS(=O)(=O)C2)CC1 (stereo not shown)	8.627%	-13.99%
Cc1ccc(C(C(=O)NCCc2nc(C)cc(=O)[nH]2)N(C)C)cc1 (stereo not shown)	2.106%	-11.36% and -4.46%
CCN(C)S(=O)(=O)NCC(C)(O)c1ccsc1 (stereo not shown)	19.89%	14.93%
COc1cc2c(cc1CN1C[C@@H](CN3CCOCC3)[C@@H](CO)C1)CCC2	28.57%	-4.586%
[H][C@]12CN(Cc3ccc(OC)cc3)C(=O)[C@@]1([H])CN(S(=O)(=O)CC)C2	24.75%	8.064%
O=C(O)C(F)(F)F.O=C(O)C(F)(F)F.c1ccc(NCc2cn3c(n2)CN(Cc2cccs2)CC3)nc1	-3.617% and -12.18%	-17.54%
COc1cccc(NC(=O)N2CCC(O)(C(F)(F)F)C2)c1 (stereo not shown)	-5.209% and 11.41%	4.614%
O=C(O)C(F)(F)F.c1ncn(Cc2cn3c(n2)CN(CC2CCCC2)CC3)n1	-22.62% and -4.602%	-8.968% and -7.031%
COC(=O)[C@H]1CN(C(C)=O)CCN1C(C)=O	3.942% and -3.109%	-20.41%
CC(C)OCCCN(Cc1ccncc1)Cc1cc(F)ccc1F.Cl	-13.41%	-28.62%
COCCNC(=O)Cn1cc(OCc2ccccc2)c(=O)cc1CO	22.36%	1.071%
CCN1CC2(CCN(C(=O)c3nc4cc(C)ccn4c3F)CC2)CC1=O	17.74%	-45.82%
CCN(Cc1ccncc1)CC1(O)CCN(C(=O)c2cccc(C)c2)C1 (stereo not shown)	-0.5972%	3.731%
CC(=O)N1CCN(c2cncc(C3CCNCC3)n2)CC1.Cl	-9.75%	-22.59%
CC(C)CC(=O)N1CCCC2(CC(C(=O)Nc3ccccc3)=NO2)C1 (stereo not shown)	-8.834%	-9.268%
CN1CCC(NC(=O)Nc2ccc(Cl)c(F)c2)C1=O (stereo not shown)	-18.45%	-37.8%
O=C(C1CCC1)N1CCC(c2ncc3c(n2)CCNC3)CC1	12.82%	-3.839%
O=C(NCCNc1cnccn1)N1CCCC1	-7.496%	-15.06%
[H][C@@]12CCN(Cc3cccs3)C[C@@]1([H])O[C@@H](c1ccncn1)C2	-5.995%	-4.353%
Cc1nc(CN2CCCC(c3cc(C(N)=O)[nH]n3)C2)oc1C (stereo not shown)	-0.3313% and 19.56%	3.02%
CN(C)Cc1nc(C2(NC(=O)Nc3cccc(F)c3)CCCC2)no1	3.245% and -28.98%	-4.897%
O=C(O)C(F)(F)F.O=C(O)C(F)(F)F.[H][C@@]12COC[C@]1(COCc1ccncc1)CN(c1cc(OC)ncn1)C2	-19.1%	-15.31%
O=C(O)C(F)(F)F.[H][C@@]12CCN(c3cnccn3)C[C@]1([H])CN(C(=O)CC)C2	-47.57%	-38.3% and -20.81%
Cc1[nH]nc2ncc(C(=O)N3CCN(CC(C)O)CC3)cc12.Cl (stereo not shown)	4.362%	-10.67%
CCN1CCC(N2CCN(C)C3(CCC(=O)N(CCOC)CC3)C2)CC1 (stereo not shown)	-19.99%	5.618%
[H][C@@]12CS(=O)(=O)C[C@]1([H])N(Cc1ccc(C#N)cc1)CCN2C(=O)C1CCC1	-27.19%	-19.28%
O[C@H]1CCCC[C@@H]1N1CCN(CCCc2ccc3c(c2)OCO3)CC1	1.77%	7.719%
CCOCC(O)CN1CCN(C(=O)c2ccc(N(C)C)nn2)CC1 (stereo not shown)	-1.666%	-23.1%
COc1ccc(C(C)=O)c(OCC(=O)NC(C)c2ccc(F)cc2)c1 (stereo not shown)	16.54%	-15.83%
CC(=O)N1CCC(Oc2ccc(C#N)cn2)CC1	26.93% and 0.1721%	12.01%
Cc1c(CN2CCc3[nH]cnc3C2C2CC2)[nH]c2ccc(F)cc12 (stereo not shown)	18.13% and 42.44%	13.51%
Cc1ccc(CS(=O)(=O)CC(=O)NCCCOC(C)C)cc1	20.72%	4.867%
COc1cccc(COCC(=O)N2CCCC2Cn2cccn2)c1 (stereo not shown)	-7.594%	-18.5%
COCCN(Cc1ccc(F)cc1Cl)C(=O)c1c(C)noc1C	-3.745% and 7.03%	0.3805%
O=c1c(S(=O)(=O)N2CCCC2)cccn1Cc1ccccc1Cl	-10.36% and 1.894%	8.45%
CC(C)NC(=O)c1sc2ccccc2c1[C@H]1CC[C@H](CN)CC1.Cl	-29.21%	-21.78%
COc1cc2nc(NCc3cc(C)on3)nc(N)c2cc1OC	22.49%	-0.902%
COc1c(CNCC(O)c2cccc(F)c2)c(C)nn1C (stereo not shown)	3.223%	-9.912%
O=C(CCn1ccc2ccc(Br)cc21)NCc1ccc(C(=O)O)cc1	15.25%	3.02%
CCc1nccn1C1CCCN(C(=O)c2ccc(C(N)=O)cn2)C1 (stereo not shown)	-18.32%	0.854%
Cc1cc(CSCc2cc(C)on2)on1	1.619%	-16.37%

For reference, 5 entries once more:

Compound	Mtb glucose medium	Mtb cholesterol medium
CCN1CCC(N2CCN(C)C3(CCC(=O)N(CCOC)CC3)C2)CC1 (stereo not shown)	-19.99%	5.618%
COc1ccc(C(C)=O)c(OCC(=O)NC(C)c2ccc(F)cc2)c1 (stereo not shown)	16.54%	-15.83%
[H][C@@]12CCN(Cc3cccs3)C[C@@]1([H])O[C@@H](c1ccncn1)C2	-5.995%	-4.353%
Cc1ccc(C(C(=O)NCCc2nc(C)cc(=O)[nH]2)N(C)C)cc1 (stereo not shown)	2.106%	-11.36% and -4.46%
CCN(Cc1ccncc1)CC1(O)CCN(C(=O)c2cccc(C)c2)C1 (stereo not shown)	-0.5972%	3.731%

Data taken from ChEMBL document CHEMBL3988442, “University of Dundee, Small-Polar-MMV Screening Library” (2021).